Experimental data: PubChem BioAssay AID720505 (Drosophila RNAi Screening Center, 2013)
Purpose: 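Genes needed for store-operated calcium entry in fly cells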 (primary screen). System: Drosophila S2R+ cells. Knock-down reagent: long dsRNA against Drosophila genes. Treatment: thapsigargin (2 µM) in calcium-free buffer to empty internal stores, then 2 mM calcium added back. Read-out: 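Stores emptied by 2 µM thapsigargin without calcium, then 2 mM calcium re-added; fluo-4 fluorescence followed by FLIPR in 384-well plates, per-well averaged endpoint, raw; two screen passes, some wells retested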. Scale: calcium signal and retest calcium signal: higher = more calcium entry after store depletion. Active means: 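Knock-downs counted as hits when calcium entry dropped relative to STIM1 positive and Rho1 negative controls present on each plate; roughly 1500 genes called, with reductions of differing size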. Calls: active = called as lowering calcium entry; inactive = not called.
The screen tested about 20,000 reagents; below is an unselected part of those that have a named target and a result. Over the whole deposit, about 2,100 (10%) are marked active. 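Raw plate signals without normalisation; calls rest on control-based scores that were not deposited; replicate 2 separates called from uncalled poorly.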 Unmarked entries are inactive. Names joined by + are all predicted targets of the reagent. Not stated in the record: the amount of reagent, the time to read-out.

predicted target	amplicon	calcium signal, replicate 1	calcium signal, replicate 2	retest calcium signal, replicate 1	retest calcium signal, replicate 2
CG34348	DRSC19425	106	101		
CG34348	DRSC19644	112	80.3		
tau	DRSC14569	120	144		
tau	DRSC23046	98.6	137		
CG12104	DRSC08254	179	134		
CG31139	DRSC21393	131	84.5		
BHD	DRSC11017	119	131		
BHD	DRSC22833	91.7	96.2		
Best2	DRSC09712	104	100		
CG14185	DRSC10184	105	80.3		
CG17124	DRSC02580	114	165		
lncRNA:mimi	DRSC21429	159	97.9		
mle	DRSC04921	98.9	148		
mxc	DRSC17819	78.8	98.2		
B-H2	DRSC19335	54.3 (active)	116		
B-H2	DRSC23012	131	165		
CG14797 + CG32809	DRSC18562	119	140		
CG43329	DRSC11672	92.4	123		
RapGAP1	DRSC02293	52.6 (active)	141	76.8	94.8
RapGAP1	DRSC02294	58.5 (active)	149		
RapGAP1	DRSC02295	50.6 (active)	154		
RapGAP1	DRSC03406	125	257		
Edg78E	DRSC11863	68.2 (active)	140		
Tsp47F	DRSC07325	108	132		
pnut	DRSC07666	202	105		
CG18268 + CG3014	DRSC15319	161	196		
CG17472	DRSC02622	174	97.5		
CG18302	DRSC02663	199	144		
CG15408	DRSC00423	85.1	106		
CG17564	DRSC02626	162	90.9		
miple2	DRSC08723	99.8	134		
CCT6	DRSC20095	132	124		
Tsp29Fb	DRSC03233	130	92.8		
Hem	DRSC11865	133	115		

Copied from the list:
CG14185 [DRSC10184], calcium signal, replicate 1 → 105
For “calcium signal, replicate 1”, CCT6 [DRSC20095] reads 132
Value of tau [DRSC23046] in “calcium signal, replicate 1”: 98.6
Result of CG15408 [DRSC00423] under “calcium signal, replicate 1”: 85.1
Under “calcium signal, replicate 1”, CG18302 [DRSC02663] reads 199
BHD [DRSC22833], calcium signal, replicate 2 = 96.2
